For 28 compounds, TEAD-luciferase reporter activity results are on record in the supplement of paper PMC10735217.

The test relates to HEK293A TEAD-LUC reporter. The experiment in a line: TEAD-luciferase reporter activity (YAP activation), robust Z score vs plate; higher = stronger YAP/TEAD activation. As to conditions: 24 h. (In general: A reporter such as luciferase makes a cellular process visible.)

This is one part of the list. Single values are uncertain here, since repeats match poorly.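 Human kidney-derived cells stably carry a construct in which eight TEAD-binding elements drive luciferase, measured by luminescence in a drug-repurposing library screen. A hit is any compound whose signal exceeds the plate mean by more than five robust Z scores.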

For `CCCCNC(=O)NC1CCN(c2ncnc3cc(OC)c(OC)cc23)CC1`, the TEAD-luciferase reporter activity is inactive: -0.744 (compound concentration: 200 nM), inactive: -0.884 (compound concentration: 2 uM) and inactive: -0.15 (compound concentration: 10 uM).

For the compound `Cc1nc(-c2ccc(OCCCCCOc3ccc(C(=N)N)cc3)cc2)c(C(C)C)s1`, the TEAD-luciferase reporter activity (compound concentration: 200 nM) was inactive: -1.07, the TEAD-luciferase reporter activity (compound concentration: 2 uM) was inactive: 0.529 and the TEAD-luciferase reporter activity (compound concentration: 10 uM) was inactive: 1.62.

With `CC(=O)N1CCN(c2ccc(C=O)cc2)C(=O)C1`, the TEAD-luciferase reporter activity is inactive: -3.48 (compound concentration: 200 nM) and active: 5.4 (compound concentration: 10 uM).

On to `CC[C@@H]1C(=O)SC[C@@H]1Cc1cncn1C`, for which the TEAD-luciferase reporter activity is, setting by setting: (compound concentration: 200 nM) inactive: 1.25; (compound concentration: 2 uM) inactive: -0.459; (compound concentration: 10 uM) inactive: -0.663.

On to `COc1ccc(OC2CN(C(=O)c3ccc4c(c3)OCO4)C2)cc1`, for which the TEAD-luciferase reporter activity (compound concentration: 200 nM) was inactive: -0.485 and the TEAD-luciferase reporter activity (compound concentration: 10 uM) is active: 35.2.

In the case of `CC(=N)N1CCC(Oc2ccc(N(CCC(=O)O)C(=O)c3ccc4ccc(C(=N)N)cc4c3)cc2)CC1`, the TEAD-luciferase reporter activity is, setting by setting: (compound concentration: 200 nM) inactive: -0.92; (compound concentration: 10 uM) inactive: -0.107.

Consider `Cc1cc(-c2nncc3c(C(C)(C)C)c(OCc4ncnn4C)nn23)no1`, for which the TEAD-luciferase reporter activity is, setting by setting: (compound concentration: 200 nM) inactive: -1.56; (compound concentration: 2 uM) inactive: -0.433; (compound concentration: 10 uM) inactive: 1.85.

With `CCc1nc2c(n1Cc1ccc(-c3ccccc3-c3nn[nH]n3)cc1)/C(=C/C(=O)O)CCCC2`, the TEAD-luciferase reporter activity runs as follows: (compound concentration: 200 nM) inactive: 0.154; (compound concentration: 2 uM) inactive: -0.579; (compound concentration: 10 uM) inactive: 0.122.

In the case of `CCCCCCCCCCCOC(=O)C[C@H](C[N+](C)(C)C)OC(=O)CC(C)C`, the TEAD-luciferase reporter activity by setting is: (compound concentration: 200 nM) inactive: 0.381; (compound concentration: 2 uM) inactive: 0.19; (compound concentration: 10 uM) inactive: -1.38.

As to `CN(C)CCOC(C)(c1ccccc1)c1ccc(Br)cc1` (stereo not given), the TEAD-luciferase reporter activity reads like this: (compound concentration: 200 nM) inactive: -1.68; (compound concentration: 2 uM) inactive: 0.36; (compound concentration: 10 uM) inactive: 0.392.

For the compound `CC[C@H]1OC(=O)C[C@@H](OC(C)=O)[C@H](C)[C@@H](O[C@@H]2O[C@H](C)[C@@H](O[C@H]3C[C@@](C)(O)[C@@H](OC(=O)CC(C)C)[C@H](C)O3)[C@H](N(C)C)[C@H]2O)[C@@H](CC=O)C[C@@H](C)C(=O)/C=C/C(C)=C/[C@@H]1CO[C@@H]1O[C@H](C)[C@@H](O)[C@@H](OC)[C@H]1OC` [Tylvalosin], the TEAD-luciferase reporter activity by setting is: (compound concentration: 200 nM) inactive: 0.0551; (compound concentration: 2 uM) inactive: -0.541; (compound concentration: 10 uM) inactive: -1.46.

With `O=C(Nc1ccc(Cl)cc1)C1CCCN(C(=O)c2cccc(-c3ccco3)c2)C1` (stereo not given), the TEAD-luciferase reporter activity was inactive: -0.564 (compound concentration: 200 nM), inactive: 0.517 (compound concentration: 2 uM) and inactive: -0.338 (compound concentration: 10 uM).

As for `CC(=O)N1CCC(CCC(=O)c2cc3c4c(c2)CCN4C(=O)CC3)CC1`, the TEAD-luciferase reporter activity reads like this: (compound concentration: 200 nM) inactive: 0.182; (compound concentration: 2 uM) inactive: -0.471; (compound concentration: 10 uM) inactive: -1.2.

`Cc1nc2ccccc2n1Cc1ccc(Cl)cc1`: the TEAD-luciferase reporter activity is, setting by setting: (compound concentration: 200 nM) inactive: -0.23; (compound concentration: 2 uM) inactive: -1.34; (compound concentration: 10 uM) active: 6.83.

As to `Cc1cccc(C)c1NC(=O)c1cccnc1O`, the TEAD-luciferase reporter activity is, setting by setting: (compound concentration: 200 nM) inactive: 0.921; (compound concentration: 2 uM) inactive: -0.67; (compound concentration: 10 uM) inactive: -1.25.

Take `CC(C)(C)C(=O)N1CCN(CC(O)COc2ccccc2)CC1` (stereo not given): the TEAD-luciferase reporter activity runs as follows: (compound concentration: 200 nM) inactive: -0.811; (compound concentration: 2 uM) inactive: -0.959; (compound concentration: 10 uM) inactive: 0.88.

Consider `O=c1ccn(C2OC(COP(=O)([O-])OP(=O)([O-])OP(=O)([O-])OP(=O)([O-])OCC3OC(n4ccc(=O)[nH]c4=O)[C@H](O)[C@@H]3O)[C@@H](O)[C@H]2O)c(=O)[nH]1` (stereo not given in full) [Diquafosol], for which the TEAD-luciferase reporter activity was inactive: -0.79 (compound concentration: 200 nM), inactive: -1.1 (compound concentration: 2 uM) and inactive: 1.6 (compound concentration: 10 uM).

Regarding `CN1C(C)(C)CCCC1(C)C`, the TEAD-luciferase reporter activity is inactive: -0.532 (compound concentration: 200 nM), inactive: -1.63 (compound concentration: 2 uM) and inactive: 2.87 (compound concentration: 10 uM).

As for `O=C(c1ccc(Cl)cc1)N1CCC(N2Cc3ccccc3C2=O)CC1`, the TEAD-luciferase reporter activity by setting is: (compound concentration: 200 nM) inactive: 0.132; (compound concentration: 10 uM) inactive: 2.64.

For the compound `CCOc1ccc2[nH]cc(C(=O)NCc3ccccc3)c(=O)c2n1`, the TEAD-luciferase reporter activity (compound concentration: 200 nM) was inactive: 0.265, the TEAD-luciferase reporter activity (compound concentration: 2 uM) was inactive: -0.538 and the TEAD-luciferase reporter activity (compound concentration: 10 uM) is inactive: 1.08.

For the compound `Cc1cc(C2CCCCC2)n(O)c(=O)c1` [ciclopirox olamine], the TEAD-luciferase reporter activity by setting is: (compound concentration: 200 nM) inactive: -0.683; (compound concentration: 10 uM) inactive: -2.03.

Consider `C#CC1(O)CCC2C3CCC4=Cc5oncc5CC4(C)C3CCC21C` (stereo not given) [danazol], for which the TEAD-luciferase reporter activity runs as follows: (compound concentration: 200 nM) inactive: -1.23; (compound concentration: 2 uM) inactive: -0.872; (compound concentration: 10 uM) inactive: -0.0266.

As to `CN(C)c1ccc(C(=C2C=CC(=[N+](C)C)C=C2)c2ccc(N(C)C)cc2)cc1`, the TEAD-luciferase reporter activity (compound concentration: 200 nM) was inactive: 2.85 and the TEAD-luciferase reporter activity (compound concentration: 10 uM) was inactive: 1.93.

For the compound `CN(C)c1ccc(C(=C2C=CC(=[N+](C)C)C=C2)c2ccc(N(C)C)cc2)cc1` [Gentian violet], the TEAD-luciferase reporter activity (compound concentration: 2 uM) is inactive: 0.747.

In the case of `CN(C)CCOCC(=O)N[C@]12C[C@H]3C[C@H](C[C@H](C3)C1)C2`, the TEAD-luciferase reporter activity is, setting by setting: (compound concentration: 200 nM) inactive: -1.36; (compound concentration: 2 uM) inactive: -0.495; (compound concentration: 10 uM) inactive: 1.48.

As to `CC[N+]1(C)CCC(OC(=O)C(c2noc3ccccc23)N2CCCCCC2)CC1` (stereo not given) [Beperidium iodide], the TEAD-luciferase reporter activity (compound concentration: 200 nM) is inactive: -0.103, the TEAD-luciferase reporter activity (compound concentration: 2 uM) is inactive: -0.364 and the TEAD-luciferase reporter activity (compound concentration: 10 uM) was inactive: -0.998.

For `C=C[C@]1(C)CC[C@@H](C(=C)C)C[C@@H]1C(=C)C` [Elemene], the TEAD-luciferase reporter activity (compound concentration: 200 nM) is inactive: -1.8, the TEAD-luciferase reporter activity (compound concentration: 2 uM) was inactive: -2 and the TEAD-luciferase reporter activity (compound concentration: 10 uM) is inactive: -0.157.

As for `Cc1cc(C)cc(-c2ccc(CN3CCCC(NC(=O)c4cccc(Cl)c4)C3)cc2)c1` (stereo not given), the TEAD-luciferase reporter activity was inactive: -0.573 (compound concentration: 200 nM) and inactive: 2.47 (compound concentration: 10 uM).
